Data as given in paper PMC4196186.
No constants are given. Whether binding was seen depends on the method and setting. In cells and extracts the contact can be indirect. Some results given as binding are weak or reduced against the parent protein; the word gives no strength.

Amino acid sequences for entries named in this document (tags omitted).
UniProt Q9H4L4: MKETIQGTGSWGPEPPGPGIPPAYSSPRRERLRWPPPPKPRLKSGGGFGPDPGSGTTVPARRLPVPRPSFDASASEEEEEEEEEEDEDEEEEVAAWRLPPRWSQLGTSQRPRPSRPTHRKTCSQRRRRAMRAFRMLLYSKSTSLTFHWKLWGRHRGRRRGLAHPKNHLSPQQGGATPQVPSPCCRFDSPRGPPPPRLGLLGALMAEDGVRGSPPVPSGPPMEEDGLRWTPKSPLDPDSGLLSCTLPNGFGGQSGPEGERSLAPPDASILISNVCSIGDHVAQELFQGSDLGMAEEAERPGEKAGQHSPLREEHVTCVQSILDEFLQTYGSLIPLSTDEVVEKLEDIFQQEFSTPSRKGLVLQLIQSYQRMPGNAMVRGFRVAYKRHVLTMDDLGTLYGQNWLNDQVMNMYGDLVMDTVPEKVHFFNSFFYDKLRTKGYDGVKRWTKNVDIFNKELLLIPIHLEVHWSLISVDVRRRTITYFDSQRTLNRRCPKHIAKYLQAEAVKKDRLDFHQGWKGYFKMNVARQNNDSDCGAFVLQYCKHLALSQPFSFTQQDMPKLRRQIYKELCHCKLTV

Key:
[1] = target: T1, FOXC2 (forkhead box C2; mesenchyme forkhead 1), exogenous, transfected (human) (UniProt Q99958); assay: co-IP; exogenous: HEK293T cells co-transfected with two plasmids; bait not stated
T1 sequence: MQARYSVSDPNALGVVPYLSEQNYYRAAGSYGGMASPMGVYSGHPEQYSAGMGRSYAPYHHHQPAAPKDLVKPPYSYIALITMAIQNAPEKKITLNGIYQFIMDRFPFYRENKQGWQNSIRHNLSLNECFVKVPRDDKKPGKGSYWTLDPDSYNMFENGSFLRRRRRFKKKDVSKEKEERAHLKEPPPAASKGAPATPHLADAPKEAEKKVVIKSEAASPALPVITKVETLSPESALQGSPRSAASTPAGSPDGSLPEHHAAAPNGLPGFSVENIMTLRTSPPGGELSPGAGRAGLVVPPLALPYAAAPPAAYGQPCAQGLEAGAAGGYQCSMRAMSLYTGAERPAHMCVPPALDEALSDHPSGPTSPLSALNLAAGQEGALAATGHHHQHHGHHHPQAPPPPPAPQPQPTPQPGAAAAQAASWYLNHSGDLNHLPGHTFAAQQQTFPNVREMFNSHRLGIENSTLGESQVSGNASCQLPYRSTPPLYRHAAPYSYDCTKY

[2] = target: T2, FOXC2, endogenous in MGC803 cells (human (endogenous in MGC803)) (UniProt Q99958); assay: co-IP; endogenous proteins in MGC803 cells; bait not stated
T2 sequence: T1 sequence

| Substance | binding [1] | binding [2] |
| --- | --- | --- |
| SENP3 (sentrin/SUMO2/3-specific protease), exogenous, transfected (from UniProt Q9H4L4 1-574) (enzyme) | binds | – |
| SENP3, endogenous in MGC803 cells (from UniProt Q9H4L4 1-574) (enzyme) | – | binds |
